Here are results for four molecules from publication doi:10.1101/2020.03.12.989079.

Read-outs that look alike come from different tables or passages of the source. No constants are given. Whether binding was seen depends on the method and setting. For part of these data: In cells and extracts the contact can be indirect. Some results given as binding are weak or reduced against the parent protein; the word gives no strength. Tags and fused reporters may be left off the sequences shown.

Experiment [1] concerns the target T1, CYCA2;3 fused to the C-terminal half of Renilla reniformis luciferase (Arabidopsis thaliana) (UniProt Q38819).
T1 sequence: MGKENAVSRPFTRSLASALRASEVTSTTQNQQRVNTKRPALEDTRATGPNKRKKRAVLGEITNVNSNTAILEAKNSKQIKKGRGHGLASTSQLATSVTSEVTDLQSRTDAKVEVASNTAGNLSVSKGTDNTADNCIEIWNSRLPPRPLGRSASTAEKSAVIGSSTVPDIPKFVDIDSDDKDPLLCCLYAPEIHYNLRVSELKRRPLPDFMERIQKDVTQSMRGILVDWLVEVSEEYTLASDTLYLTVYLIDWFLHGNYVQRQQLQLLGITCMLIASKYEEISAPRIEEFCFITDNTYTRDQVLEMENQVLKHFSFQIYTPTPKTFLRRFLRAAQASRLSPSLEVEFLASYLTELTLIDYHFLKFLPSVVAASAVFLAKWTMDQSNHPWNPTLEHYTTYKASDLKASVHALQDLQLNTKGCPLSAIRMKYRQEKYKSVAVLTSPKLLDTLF
Put plainly: split reporter.

In experiment [2] the target is T2, CYCD3;1 fused to the C-terminal half of Renilla reniformis luciferase (Arabidopsis thaliana) (UniProt P42753).
T2 sequence: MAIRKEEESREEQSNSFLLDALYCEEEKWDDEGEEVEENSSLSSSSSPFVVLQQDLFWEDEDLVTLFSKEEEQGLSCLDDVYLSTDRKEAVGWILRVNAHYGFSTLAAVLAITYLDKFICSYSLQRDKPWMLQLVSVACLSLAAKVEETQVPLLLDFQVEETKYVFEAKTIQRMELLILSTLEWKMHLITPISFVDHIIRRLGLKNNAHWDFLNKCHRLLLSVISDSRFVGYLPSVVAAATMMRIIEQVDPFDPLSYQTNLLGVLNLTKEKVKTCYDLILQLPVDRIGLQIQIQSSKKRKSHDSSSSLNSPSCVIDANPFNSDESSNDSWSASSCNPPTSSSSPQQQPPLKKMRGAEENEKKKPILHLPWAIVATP
Description: split reporter.

For experiment [3], the target named is T3, CYCA2;3 in pASGW (GAL4 DNA-binding domain fusion) (Arabidopsis thaliana) (UniProt Q38819).
T3 sequence: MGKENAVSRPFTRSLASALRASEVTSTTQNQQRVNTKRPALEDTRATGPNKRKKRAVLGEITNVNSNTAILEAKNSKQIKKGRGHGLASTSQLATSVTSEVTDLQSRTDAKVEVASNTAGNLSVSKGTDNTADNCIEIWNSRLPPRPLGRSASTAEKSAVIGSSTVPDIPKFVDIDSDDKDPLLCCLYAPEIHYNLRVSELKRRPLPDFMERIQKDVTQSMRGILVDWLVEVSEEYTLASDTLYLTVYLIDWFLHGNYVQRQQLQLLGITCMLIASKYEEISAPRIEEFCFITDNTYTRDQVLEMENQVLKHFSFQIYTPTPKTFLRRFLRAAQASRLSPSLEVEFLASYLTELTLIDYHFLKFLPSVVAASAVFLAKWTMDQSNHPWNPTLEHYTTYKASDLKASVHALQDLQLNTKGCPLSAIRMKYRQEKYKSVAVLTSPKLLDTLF
Put plainly: two-hybrid.

Experiment [4] deals with T3, CYCA2;3 in pASGW (GAL4 DNA-binding domain fusion) (Arabidopsis thaliana). Put plainly: two-hybrid. This is another data set of the same source.

B1: SIAMESE (SIM) fused to the N-terminal portion of Renilla reniformis luciferase (protein, UniProt Q9LZ78 1-127)
chain: MDLDLIQDLPILNFPPAIKIRANTNRDDDGGGCTTPTSSDHKIPPTTATTPPPPPQKPRPPSTPSSLGIRSCKRKLMTSLSKYEIIVNKDEIERFFSSVYNQTMASSTTTAITVAKRRRSFRSCSRR
On to B1, for which the binding entry was “binds” in experiment [1] and “no binding” in experiment [2].

B2: SIM T35A (protein, UniProt Q9LZ78 1-127)
chain: MDLDLIQDLPILNFPPAIKIRANTNRDDDGGGCTAPTSSDHKIPPTTATTPPPPPQKPRPPSTPSSLGIRSCKRKLMTSLSKYEIIVNKDEIERFFSSVYNQTMASSTTTAITVAKRRRSFRSCSRR
For B2, the binding result in experiment [3] is on record as “no binding”.

B3: SIM T35D (protein, UniProt Q9LZ78 1-127)
chain: MDLDLIQDLPILNFPPAIKIRANTNRDDDGGGCTDPTSSDHKIPPTTATTPPPPPQKPRPPSTPSSLGIRSCKRKLMTSLSKYEIIVNKDEIERFFSSVYNQTMASSTTTAITVAKRRRSFRSCSRR
Turning to B3, the binding entry in experiment [3] is listed as “no binding”.

B4: SIAMESE (SIM), wild type, in pACTGW (GAL4 transcription activation domain fusion) (protein, UniProt Q9LZ78 1-127)
chain: MDLDLIQDLPILNFPPAIKIRANTNRDDDGGGCTTPTSSDHKIPPTTATTPPPPPQKPRPPSTPSSLGIRSCKRKLMTSLSKYEIIVNKDEIERFFSSVYNQTMASSTTTAITVAKRRRSFRSCSRR
For the molecule B4, the binding entry in experiment [4] and in experiment [3] was “binds” in each case.
